According to PMC7526497:
Results are given in words; binding and its absence hold for the method and conditions named. In cells and extracts the contact can be indirect. Here binding means that the protein was enriched with, or labelled near, the bait; the list need not be complete.

Sequences of proteins named here, by UniProt entry; tags and fusion partners are left off.
UniProt P09874: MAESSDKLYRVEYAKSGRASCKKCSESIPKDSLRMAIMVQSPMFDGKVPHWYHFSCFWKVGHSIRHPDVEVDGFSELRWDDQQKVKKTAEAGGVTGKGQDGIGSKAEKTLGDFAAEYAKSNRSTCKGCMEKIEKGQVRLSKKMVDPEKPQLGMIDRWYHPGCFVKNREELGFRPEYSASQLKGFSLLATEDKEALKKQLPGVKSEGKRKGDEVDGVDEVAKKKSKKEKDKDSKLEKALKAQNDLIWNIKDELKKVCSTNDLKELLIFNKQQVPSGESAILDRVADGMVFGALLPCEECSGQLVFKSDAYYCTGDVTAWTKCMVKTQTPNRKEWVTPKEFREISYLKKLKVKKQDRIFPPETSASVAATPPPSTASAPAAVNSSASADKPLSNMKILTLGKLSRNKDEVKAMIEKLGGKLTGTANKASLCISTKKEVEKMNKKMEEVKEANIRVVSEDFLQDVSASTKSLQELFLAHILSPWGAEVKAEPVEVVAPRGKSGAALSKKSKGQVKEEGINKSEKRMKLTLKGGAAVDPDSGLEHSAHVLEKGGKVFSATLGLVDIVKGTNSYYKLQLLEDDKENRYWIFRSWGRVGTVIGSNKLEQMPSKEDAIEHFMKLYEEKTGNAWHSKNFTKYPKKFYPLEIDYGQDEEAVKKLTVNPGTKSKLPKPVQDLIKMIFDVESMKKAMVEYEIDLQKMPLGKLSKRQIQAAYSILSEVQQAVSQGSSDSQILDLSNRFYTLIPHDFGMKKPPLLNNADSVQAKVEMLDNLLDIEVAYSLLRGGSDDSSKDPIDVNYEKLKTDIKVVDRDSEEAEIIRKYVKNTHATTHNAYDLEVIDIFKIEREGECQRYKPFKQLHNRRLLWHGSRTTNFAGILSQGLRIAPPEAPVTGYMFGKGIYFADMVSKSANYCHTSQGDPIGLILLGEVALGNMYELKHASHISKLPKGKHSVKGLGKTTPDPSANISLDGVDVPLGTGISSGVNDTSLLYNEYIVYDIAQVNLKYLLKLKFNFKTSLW
UniProt O43167: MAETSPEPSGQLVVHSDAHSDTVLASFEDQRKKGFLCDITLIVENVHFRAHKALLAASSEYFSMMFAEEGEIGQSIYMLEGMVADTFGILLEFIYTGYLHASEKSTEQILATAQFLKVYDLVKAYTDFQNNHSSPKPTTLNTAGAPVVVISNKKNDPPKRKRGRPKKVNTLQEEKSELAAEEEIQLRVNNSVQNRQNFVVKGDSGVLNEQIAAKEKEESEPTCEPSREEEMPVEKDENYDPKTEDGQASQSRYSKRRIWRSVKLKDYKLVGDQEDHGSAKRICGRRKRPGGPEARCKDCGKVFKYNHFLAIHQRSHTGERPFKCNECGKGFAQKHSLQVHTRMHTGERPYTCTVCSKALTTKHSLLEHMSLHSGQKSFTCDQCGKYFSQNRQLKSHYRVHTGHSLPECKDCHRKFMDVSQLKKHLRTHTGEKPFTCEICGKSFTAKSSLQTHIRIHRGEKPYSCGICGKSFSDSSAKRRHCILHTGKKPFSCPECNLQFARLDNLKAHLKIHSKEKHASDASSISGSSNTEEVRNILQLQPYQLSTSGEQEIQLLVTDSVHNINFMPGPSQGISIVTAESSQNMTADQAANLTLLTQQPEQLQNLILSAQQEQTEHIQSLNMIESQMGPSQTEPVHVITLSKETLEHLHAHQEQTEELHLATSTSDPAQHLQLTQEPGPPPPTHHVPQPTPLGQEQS
UniProt P18887: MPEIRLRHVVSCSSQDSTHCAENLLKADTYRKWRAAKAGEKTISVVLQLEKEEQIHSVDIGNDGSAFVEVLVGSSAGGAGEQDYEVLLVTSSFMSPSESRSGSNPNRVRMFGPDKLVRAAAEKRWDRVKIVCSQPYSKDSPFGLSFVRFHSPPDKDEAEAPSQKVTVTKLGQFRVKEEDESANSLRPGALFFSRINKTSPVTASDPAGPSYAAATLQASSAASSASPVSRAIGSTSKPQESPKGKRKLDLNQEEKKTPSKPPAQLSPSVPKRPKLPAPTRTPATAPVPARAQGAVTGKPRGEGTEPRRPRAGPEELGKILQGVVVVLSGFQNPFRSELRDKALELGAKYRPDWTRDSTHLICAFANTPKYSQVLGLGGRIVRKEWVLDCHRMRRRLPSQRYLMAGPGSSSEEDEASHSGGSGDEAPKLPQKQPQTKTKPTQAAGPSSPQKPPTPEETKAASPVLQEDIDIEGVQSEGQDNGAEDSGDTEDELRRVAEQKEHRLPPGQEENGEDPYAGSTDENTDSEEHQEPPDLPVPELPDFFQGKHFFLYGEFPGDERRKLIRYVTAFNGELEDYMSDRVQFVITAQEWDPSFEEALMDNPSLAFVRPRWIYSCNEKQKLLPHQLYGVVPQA

What was measured:
GFP-PARP1 = GFP-PARP1 (UniProt P09874); experiment: affinity purification with mass spectrometry; SILAC-labelled U2OS cells transiently expressing GFP-ZBTB24 or GFP-PARP1 (heavy) or empty vector (light); lysis in EBC-150, sonication, Benzonase, NaCl raised to 300 mM; GFP Trap beads, washes with EBC-300; on-bead trypsin digestion, LC-MS/MS
GFP-ZBTB24 (human) = GFP-ZBTB24 (human) (UniProt O43167); experiment: as above

XRCC1, endogenous (from UniProt P18887 1-633)
binding (GFP-PARP1): binds

ZBTB24, endogenous (from UniProt O43167 1-697)
binding (GFP-PARP1): binds

poly(ADP-ribose) polymerase 1 (PARP1), endogenous (from UniProt P09874 1-1014) (enzyme)
binding (GFP-ZBTB24 (human)): binds

B1: DNA ligase 3 (LIG3), endogenous (enzyme, UniProt P49916 43-1009)
chain: LLHGHPLFLRRKPVLSFQGSHLRSRATYLVFLPGLHVGLCSGPCEMAEQRFCVDYAKRGTAGCKKCKEKIVKGVCRIGKVVPNPFSESGGDMKEWYHIKCMFEKLERARATTKKIEDLTELEGWEELEDNEKEQITQHIADLSSKAAGTPKKKAVVQAKLTTTGQVTSPVKGASFVTSTNPRKFSGFSAKPNNSGEAPSSPTPKRSLSSSKCDPRHKDCLLREFRKLCAMVADNPSYNTKTQIIQDFLRKGSAGDGFHGDVYLTVKLLLPGVIKTVYNLNDKQIVKLFSRIFNCNPDDMARDLEQGDVSETIRVFFEQSKSFPPAAKSLLTIQEVDEFLLRLSKLTKEDEQQQALQDIASRCTANDLKCIIRLIKHDLKMNSGAKHVLDALDPNAYEAFKASRNLQDVVERVLHNAQEVEKEPGQRRALSVQASLMTPVQPMLAEACKSVEYAMKKCPNGMFSEIKYDGERVQVHKNGDHFSYFSRSLKPVLPHKVAHFKDYIPQAFPGGHSMILDSEVLLIDNKTGKPLPFGTLGVHKKAAFQDANVCLFVFDCIYFNDVSLMDRPLCERRKFLHDNMVEIPNRIMFSEMKRVTKALDLADMITRVIQEGLEGLVLKDVKGTYEPGKRHWLKVKKDYLNEGAMADTADLVVLGAFYGQGSKGGMMSIFLMGCYDPGSQKWCTVTKCAGGHDDATLARLQNELDMVKISKDPSKIPSWLKVNKIYYPDFIVPDPKKAAVWEITGAEFSKSEAHTADGISIRFPRCTRIRDDKDWKSATNLPQLKELYQLSKEKADFTVVAGDEGSSTTGGSSEENKGPSGSAVSRKAPSKPSASTKKAEGKLSNSNSKDGNMQTAKPSAMKVGEKLATKSSPVKVGEKRKAADETLCQTKVLLDIFTGVRLYLPPSTPDFSRLRRYFVAFDGDLVQEFDMTSATHVLGSRDKNPAAQQVSPEWIWACIRKRRLVAPC
binding (GFP-PARP1): binds
